Results deposited as PubChem BioAssay AID1671195 (Yale University, 2021)
This is an unselected part of about 22,000 deposited reagents. About 1,510 of them (6.9%) count as active. 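Active includes knockdowns raising or lowering LDL uptake; positive z-scores mean more uptake, negative mean less.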 Entries without a mark were called inactive. The numbers tell different reagents against one gene apart.

- Assay: 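Regulators of LDL receptor activity judged by labelled LDL uptake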 (primary screen)
- Cells: human Huh7 hepatoma cells
- Reagent: siRNA pool against human genes, 18 nM
- Time to read-out: about 2 to 2.5 days of knockdown, then 8 h LDL uptake
- Challenge: DiI-labelled LDL at 30 µg/ml for 8 h, in lipoprotein-deficient serum medium
- Detection: 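Per-cell DiI-LDL intensity by automated imaging; well means scaled to the plate median and given as a robust z-score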
- Direction: robust z-score: higher = more LDL uptake after knockdown
- Active means: 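Active when two or more replicates show a robust z-score above 2 or below -2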

no.	target gene	reagent no.	robust z-score, replicate 1	robust z-score, replicate 2	robust z-score, replicate 3
1	FUNDC2P2	1	0.748	0.96	0.272
2	LOC441569 (retired record)	1	0.073	0.442	-0.235
3	GPSM1	1	-0.342	-0.451	-0.298
4	ADAM10	1	-0.217	-2.64	-0.556
5	GPR137C	1	-0.000604	0.358	0.0395
6	CFAP221	1	-0.477	-0.324	-0.782
7	POLA1	1	-1.6	-2.17	-1.64
8	LOC100288254	1	2.2	0.781	1.83
9	NEFM	1	-0.24	1.63	0.222
10	MYO10	1	0.303	-0.241	-0.226
11	LOC392533 (retired record)	1	-0.724	-0.00195	-0.0474
12	PYGO1	1	0.501	0.269	0.244
13	FKBP4	1	-0.971	-0.8	-0.881
14	NTN4	1	0.563	0.725	1.25
15	LOC401476 (retired record)	1	0.621	-1.8	0.339
16	PICK1	1	-0.758	-0.0158	-1.12
17	WFIKKN1	1	-0.176	-1.1	-1.31
18	GNA12	1	2.6 (active)	2.7	2.56
19	OTULINL	1	-0.521	-1.08	-0.533
20	ZC3H12D	1	-0.816	-0.814	-0.896
21	CDK11A	1	-0.139	-0.432	0.619
22	KCNK5	1	0.169	-0.579	0.619
23	ITM2A	1	0.739	0.273	-0.49
24	LOC388248	1	-0.449	-0.676	-0.582
25	RNF17	1	-2.06	-0.0809	-0.56
26	RNF17	2	-0.646	-0.942	-1.29
27	WDSUB1	1	-0.879	-1.51	0.0172
28	MAP3K6	1	-0.533	-0.629	-0.829
29	SAMD7	1	0.871	1.6	-0.381
30	MGAT4FP	1	-0.966	-0.594	-0.963
31	RNF139	1	-0.575	0.536	0.175
32	LILRB4	1	-0.211	-0.312	0.445
33	EHD2	1	1.07	3.62	0.375
34	RASGRP2	1	0.796	1.23	1.04
35	DVL1	1	0.0896	0.217	0.0114
36	TRIML2	1	0.291	0.115	0.488
37	HAPSTR1	1	5.1 (active)	2.53	3.5
38	RBMX2P5	1	-0.205	-0.838	-0.69
39	SLN	1	0.445	0.884	0.104
40	IHO1	1	0.572	0.621	0.821
41	TTF1	1	4.51 (active)	4.91	3.53
42	RNF151	1	0.243	0.201	-0.169
43	DNAH8	1	1.1	1.32	0.804
44	HUWE1	1	-0.811	-0.677	-1.47
45	CDK5RAP1	1	-0.584	1.41	0.322
46	KDM4A	1	1.11	1.13	-0.936
47	TSGA13	1	-0.953	-0.718	-0.615
48	MIEF2	1	-1.19	-0.805	-0.823
49	LXN	1	-1.2	-1.16	-1.25
50	PACSIN3	1	-0.27	-0.0595	-0.68
51	PSMD10	1	-1.4	-1.47	-1.77
52	HERC4	1	-1.09	0.0913	1.26
53	CA14	1	-0.0377	-0.142	-0.322
54	IGFN1	1	0.17	0.129	0.0467
55	TBC1D8	1	1.97 (active)	2.34	1.89
56	NBPF21P	1	0.0176	-0.241	0.00753
57	CRTAP	1	1.41	1.49	0.375
58	LOC401020 (retired record)	1	-0.173	-0.376	0.437
59	BFSP1	1	1.08	0.354	1.73
60	CEBPZ	1	-0.519	-0.61	-0.475
61	AGTR2	1	3.77 (active)	2.15	2.66
62	SIRPG	1	0.504	1.52	0.795
63	SCFD2	1	0.347	0.626	0.905
64	BMP2K	1	-0.052	0.235	-0.000363
65	SLC35F5	1	2.83 (active)	2.85	2.31
66	GALNT10	1	1.88	1.76	1.71
67	LOC285544 (retired record)	1	-0.473	-0.783	-0.558
68	TEX2	1	-2.1	-0.417	-0.305
69	DAD1	1	-0.26	-1.35	-0.658
70	CPM	1	-1.15	-1.33	-0.667
71	LOC388461 (retired record)	1	-0.382	-0.446	-0.389
72	DKK2	1	-1.32	1.8	0.232
73	ARIH2	1	0.112	-1.14	-1.67
74	CASKIN2	1	0.0464	1.74	2.45
75	HEY1	1	-1.03	-0.505	0.0335
76	GCFC2	1	-0.00275	1.57	-0.725
77	CDK2AP2	1	-1.67	-0.805	1.68
78	ABCB1	1	-0.216	-0.0252	-0.0657
79	SLCO4C1	1	1.65	1.07	1.88
80	LOC391030 (retired record)	1	-0.497	-0.581	-0.343
81	SCNN1A	1	-0.131	-0.648	-0.51
82	ABCA3	1	-1.5	-1.07	-1.24
83	LOC441336 (retired record)	1	0.593	0.231	0.124
84	UMPS	1	-0.654	-1.34	-0.49
85	MYCBP	1	2.86 (active)	2.04	1.9
86	LOC388291 (retired record)	1	-1.31	-1.23	-1.5
87	LTBP1	1	1.38	0.575	-0.312

Active calls, of those listed so far:
target gene	reagent no.	robust z-score, replicate 1	robust z-score, replicate 2	robust z-score, replicate 3
GNA12	1	2.6 (active)	2.7	2.56
HAPSTR1	1	5.1 (active)	2.53	3.5
TTF1	1	4.51 (active)	4.91	3.53
TBC1D8	1	1.97 (active)	2.34	1.89
AGTR2	1	3.77 (active)	2.15	2.66
SLC35F5	1	2.83 (active)	2.85	2.31
MYCBP	1	2.86 (active)	2.04	1.9
